Consider 52 molecules from the supplement of paper PMC3682954.

For this experiment, the system named is RAW 264.7. The experiment can be described thus: cell viability (MTT) relative to vehicle control; higher = more viable cells. As to conditions: stimulus: HMGB1 5 ug/ml, 18 h.
Setting [1] is: compound concentration: 1 ug/ml.

Structures can show the parent of a compound that is named as a salt. ± gives the standard deviation of the averaged measurements. This is one part of the list. Most values come without repeats; read them as rough.

The term cell viability denotes a read-out of living cells in per cent, often relative to untreated cells. As to `c1ccc2sc(C3(N4CCCCC4)CCCCC3)cc2c1` [BTCP hydrochloride], the cell viability (compound concentration: 3 uM) is 89.7%. Still for that read-out and setting: for `COc1cc(CC(C)N)c(OC)cc1I` (racemic) [(±)-DOI hydrochloride] the value was 91.8%; for `C[N+]1(C)C2CCC1CC(OC(=O)c1c[nH]c3ccccc13)C2` (centres undefined) [3-Tropanylindole-3-carboxylate methiodide], 124%; for `N#C/C(=C\c1ccc(O)c(O)c1)C(N)=S` [Tyrphostin 47], 118%. Consider `C[C@@H]1CN([C@H]2CC[C@](C#N)(c3ccc(F)cc3)CC2)CC[C@]1(C(=O)O)c1ccccc1` [Levocabastine], for which, where the note is “compound concentration: 3 uM”, the cell viability is 99%. Still for that read-out and setting: next, `C[C@@H]1CN([C@H]2CC[C@](C#N)(c3ccc(F)cc3)CC2)CC[C@]1(C(=O)O)c1ccccc1` [Levocabastine hydrochloride]: 87.1%; `CCCC[N+]1(C)[C@@H]2C[C@@H](OC(=O)[C@H](CO)c3ccccc3)C[C@H]1[C@@H]1O[C@@H]12` (single isomer, unassigned; (-)) [(-)-Scopolamine,n-Butyl-, bromide]: 118%; `COc1ccc(C(=O)OC2C[C@H]3CC[C@@H](C2)N3C)cc1OC` (some centres undefined) [Convolamine hydrochloride]: 113%. For the molecule `CN1CC(CNC(=O)OCc2ccccc2)CC2c3cccc4c3c(cn4C)CC21` (centres undefined) [Metergoline phenylmethyl ester], the cell viability under setting [1] was 97.9%.

In the case of `CCC1(CC)C(=O)NC(=O)NC1=O`, the cell viability (compound concentration: 3 uM) turned out to be 101%. With `C=CCC1(CC(C)C)C(=O)NC(=O)NC1=O` [Butalbital], the cell viability (compound concentration: 3 uM) came out at 115%. Still for that read-out and setting: for `O=C(CCCN1CCC(n2c(=O)[nH]c3ccccc32)CC1)c1ccc(F)cc1` [Benperidol] the value was 102%; for `O=C1CCO1`, 87.5 ± 4.3%. Regarding `C[C@@H]1CC[C@]2(NC1)O[C@H]1C[C@H]3[C@@H]4CC=C5C[C@@H](O)CC[C@]5(C)[C@H]4CC[C@]3(C)[C@H]1[C@@H]2C` [Solasodine], under setting [1], the cell viability worked out at 93.5%. Still for that read-out and setting: for `CN[C@@H]1[C@H]2[C@@H]3CCN2C[C@H]1O3` [Loline] the value was 84.3%. `COc1ccc(OC)c(C(O)C(C)N)c1` (centres undefined) [Methoxamine hydrochloride]: the cell viability (compound concentration: 3 uM) is 90.1 ± 14%. On the same count and under the same terms, next, `COc1ccc(OC)c(C(O)C(C)N)c1` (centres undefined): 109%.

On to `Cc1ccc2[nH]cc(CCN)c2c1` [5-Methyltryptamine Hydrochloride], for which the cell viability under setting [1] turned out to be 101%. As for `CCC(=O)O[C@H]1CC[C@H]2[C@@H]3CCC4=CC(=O)CC[C@]4(C)[C@H]3CC[C@]12C`, the cell viability (compound concentration: 3 uM) was determined as 112%.

`CCC(=O)O[C@H]1CC[C@H]2[C@@H]3CCC4=CC(=O)CC[C@]4(C)[C@H]3CC[C@]12C` [Testosterone propionate]: the cell viability (compound concentration: 3 uM) was 143%. Same read-out and setting: for `C/C(O)=C(\C#N)C(=O)Nc1cc(Br)ccc1Br` the value was 108%.

With `CCN1CC2(COC(=O)c3ccccc3N3C(=O)CC(C)C3=O)CC[C@H](OC)[C@@]34C5C[C@@H]6[C@@H](OC)C[C@@](O)(C5[C@H]6OC)[C@](O)([C@@H](OC)C23)[C@@H]14.[O-][Cl+3]([O-])([O-])O` (some centres undefined), under setting [1], the cell viability is 96.8%. For `CCCC(C)(COC(N)=O)COC(=O)NC(C)C` (centres undefined), the cell viability (compound concentration: 3 uM) stood at 108%. On to `CCCC(C)(COC(N)=O)COC(=O)NC(C)C` (centres undefined) [Carisoprodol], for which, for the setting “compound concentration: 3 uM”, the cell viability is 109 ± 9.2%.

On to `CCC1(C)CC(=O)NC(=O)C1` [Bemegride], for which the cell viability (compound concentration: 3 uM) turned out to be 118%. `C[C@@]12C(=O)OC(=O)[C@]1(C)[C@H]1CC[C@@H]2O1`: the cell viability (compound concentration: 3 uM) was determined as 20.9%. For `C[C@@]12C(=O)OC(=O)[C@]1(C)[C@H]1CC[C@@H]2O1` [Cantharidin], the cell viability is, setting by setting: under setting [1], 33.5%; (compound concentration: 3 uM) 30.5 ± 6.4%. In the case of `COC(C)(C)CCC[C@H](C)C/C=C/C(C)=C/C(=O)OC(C)C`, under “compound concentration: 3 uM”, the cell viability was determined as 105 ± 5.9%. The same measure, in the same setting: next, `Cl[C@H]1[C@H](Cl)[C@@H](Cl)[C@@H](Cl)[C@H](Cl)[C@H]1Cl`: 115%; `Oc1ccc(Cl)cc1Cc1cc(Cl)ccc1O`: 98.9%. On the same count and under the same terms, for `OC(c1ccccc1)(c1ccccc1)C1CCNCC1` [Azacyclonol] the value was 102%. Turning to `CC[C@H]1CN2CC[C@H]1C[C@@H]2[C@@H](O)c1ccnc2ccccc12` [Hydrocinchonine], under setting [1], the cell viability is 96.9%.

For the molecule `NC(=O)OCCCc1ccccc1`, where the note is “compound concentration: 3 uM”, the cell viability was determined as 94.2%.

`NC1CCc2cc(O)c(O)cc2C1` (centres undefined) [6,7-ADTN hydrobromide]: the cell viability (compound concentration: 3 uM) was determined as 101%.

Take `N[C@@H]1C[C@H]1c1ccccc1.N[C@H]1C[C@@H]1c1ccccc1`: the cell viability (compound concentration: 3 uM) came to 112%. The same measure, in the same setting: for `N[C@@H]1C[C@H]1c1ccccc1.N[C@H]1C[C@@H]1c1ccccc1` [Tranylcypromine] the value was 114%; for `NC(CP(=O)(O)O)C(=O)O` (racemic) [(±)-2-Amino-3-phosphonopropionic acid], 102%. `CN1CC2C[C@@H](C1)Cn1c2cccc1=O`: under setting [1], the cell viability was determined as 102%. As for `N=C(NCc1ccc(Cl)cc1)SCCCc1c[nH]cn1` [Clobenpropit], the cell viability (compound concentration: 3 uM) is 103%. On the same count and under the same terms, for `C[N+]1(C)CCCC(OC(=O)C(O)(c2ccccc2)c2ccccc2)C1` (centres undefined) [Mepenzolate bromide] the value was 109%. Same read-out and setting: for `C[N+]1(C)CCCC(OC(=O)C(O)(c2ccccc2)c2ccccc2)C1` (centres undefined) the value was 97.5%.

Consider `COc1cc(N)c(Cl)cc1C(=O)NC1CN2CCC1CC2` (centres undefined) [Zacopride], for which the cell viability (compound concentration: 3 uM) was 95.2%. On the same count and under the same terms, next, `O=C1C=CC(=O)C=C1` [p-Benzoquinone]: 110%. Same read-out and setting: next, `COc1ccc2c(c1OC)C(=O)OC2C1c2cc3c(cc2CCN1C)OCO3` (single isomer, unassigned; (+)) [(+)-Hydrastine]: 107%; `CC(=O)[C@H]1CC[C@H]2[C@@H]3CC[C@H]4C[C@H](O)CC[C@]4(C)[C@H]3C(=O)C[C@]12C` [Alfaxalone]: 78.4%. The same measure, in the same setting: for `CC(=O)[C@H]1CC[C@H]2[C@@H]3CC[C@H]4C[C@H](O)CC[C@]4(C)[C@H]3C(=O)C[C@]12C` [5alpha-Pregnan-3alpha-ol-11,20-dione] the value was 99.2%. In the case of `CC(=O)c1c(O)c(C)c(O)c(Cc2c(O)c3c(c(C(=O)/C=C/c4ccccc4)c2O)OC(C)(C)C=C3)c1O` [Rottlerin], the cell viability under setting [1] came out at 77.1% and the cell viability (compound concentration: 3 uM) was determined as 98.6%.

Regarding `COc1ccccc1N1CCNCC1` [1-(2-Methoxyphenyl)piperazine hydrochloride], the cell viability (compound concentration: 3 uM) was determined as 116%. Still for that read-out and setting: for `C=C1[C@@H](C)[C@H]2[C@H](Cc3ccccc3)NC(=O)[C@]23[C@H](OC(C)=O)/C=C/[C@@](C)(O)C(=O)[C@@H](C)C/C=C/[C@H]3[C@@H]1O` the value was 95%. As to `O=CN1C[C@@H]2C[C@H](C1)c1cccc(=O)n1C2`, under setting [1], the cell viability is 97.8%. As to `C=C1C[C@@H]2[C@H](CC[C@]3(C)C(=O)CC[C@@H]23)[C@@]2(C)C=CC(=O)C=C12`, the cell viability (compound concentration: 3 uM) was 105 ± 1.9%. On the same count and under the same terms, for `C=C1C[C@@H]2[C@H](CC[C@]3(C)C(=O)CC[C@@H]23)[C@@]2(C)C=CC(=O)C=C12` [Exemestane] the value was 110%.
